# This is one part of the list.
# B1: LysMD3 (Homo sapiens), Q7Z3D4 (protein)
# chain: MAGRHQNRSFPLPGVQSSGQVHAFGNCSDSDILEEDAEVYELRSRGKEKVRRSTSRDRLDDIIVLTKDIQEGDTLNAIALQYCCTVADIKRVNNLISDQDFFALRSIKIPVKKFSSLTETLCPPKGRQTSRHSSVQYSSEQQEILPANDSLAYSDSAGSFLKEVDRDIEQIVKCTDNKRENLNEVVSALTAQQMRFEPDNKNTQRKDPYYGADWGIG
# Experiments:
# Experiment in all cases: glycan array binding signal (z-score within array); higher = stronger binding
# Conditions in all cases: glycan notation: IUPAC condensed, linker removed
# [1] = target: Fuc(a1-2)Gal(b1-4)GlcNAc(b1-3)Gal(b1-4)GlcNAc(b1-2)Man(a1-3)[Fuc(a1-2)Gal(b1-4)GlcNAc(b1-3)Gal(b1-4)GlcNAc(b1-2)Man(a1-6)]Man(b1-4)GlcNAc(b1-4)GlcNAc
# In short: (§1)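 Columns mapping to the same glycan were averaged after glycan names were converted to IUPAC-condensed notation. The data come from 3228 arrays in the Consortium for Functional Glycomics database, limited to those with an available protein sequence. Binding is reported as a within-array Z-score averaged across arrays of one protein sequence and across linkers.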
# [2] = target: Fuc(a1-2)Gal(b1-4)GlcNAc(b1-3)Gal(b1-4)GlcNAc(b1-3)Gal(b1-4)GlcNAc
# In short: as §1
# [3] = target: Fuc(a1-2)Gal(b1-4)GlcNAc(b1-3)GalNAc
# In short: as §1
# [4] = target: Fuc(a1-2)Gal(b1-4)GlcNAc(b1-3)[Fuc(a1-2)Gal(b1-4)GlcNAc(b1-6)]GalNAc
# In short: as §1
# [5] = target: Fuc(a1-2)Gal(b1-4)GlcNAc(b1-3)[Fuc(a1-3)[Gal(b1-4)]GlcNAc(b1-6)]Gal(b1-4)Glc
# In short: as §1
# [6] = target: Fuc(a1-2)Gal(b1-4)GlcNAc(b1-6)GalNAc
# In short: as §1
# [7] = target: Fuc(a1-2)Gal(b1-4)GlcNAc6S
# In short: as §1
# [8] = target: Fuc(a1-2)Gal(b1-4)[Fuc(a1-3)]GlcNAc
# In short: as §1
# [9] = target: Fuc(a1-2)Gal(b1-4)[Fuc(a1-3)]GlcNAc(b1-2)Man(a1-3)[Fuc(a1-2)Gal(b1-4)[Fuc(a1-3)]GlcNAc(b1-2)Man(a1-6)]Man(b1-4)GlcNAc(b1-4)[Fuc(a1-6)]GlcNAc
# In short: as §1
# [10] = target: Fuc(a1-2)Gal(b1-4)[Fuc(a1-3)]GlcNAc(b1-2)[Fuc(a1-2)Gal(b1-4)[Fuc(a1-3)]GlcNAc(b1-4)]Man(a1-3)[Fuc(a1-2)Gal(b1-4)[Fuc(a1-3)]GlcNAc(b1-2)Man(a1-6)]Man(b1-4)GlcNAc(b1-4)GlcNAc
# In short: as §1
# [11] = target: Fuc(a1-2)Gal(b1-4)[Fuc(a1-3)]GlcNAc(b1-3)Gal(b1-4)[Fuc(a1-3)]GlcNAc
# In short: as §1
# [12] = target: Fuc(a1-2)Gal(b1-4)[Fuc(a1-3)]GlcNAc(b1-3)Gal(b1-4)[Fuc(a1-3)]GlcNAc(b1-3)Gal(b1-4)[Fuc(a1-3)]GlcNAc
# In short: as §1
# [13] = target: Fuc(a1-2)Gal(b1-4)[Fuc(a1-3)]GlcNAc(b1-3)GalNAc
# In short: as §1
# [14] = target: Fuc(a1-2)Gal(b1-4)[Fuc(a1-3)]GlcNAc(b1-3)[Neu5Ac(a2-6)Gal(b1-4)GlcNAc(b1-6)]Gal(b1-4)Glc
# In short: as §1
# [15] = target: Fuc(a1-2)Gal3S(b1-4)GlcNAc
# In short: as §1
# [16] = target: Fuc(a1-2)Gal6S(b1-3)GlcNAc
# In short: as §1
# [17] = target: Fuc(a1-2)Gal6S(b1-3)GlcNAc6S
# In short: as §1
# Fuc(a1-2)Gal6S(b1-4)Glc = target: Fuc(a1-2)Gal6S(b1-4)Glc
# In short: as §1
# [18] = target: Fuc(a1-2)Gal6S(b1-4)Glc6S
# In short: as §1
# Fuc(a1-2)[Gal(a1-3)]Gal = target: Fuc(a1-2)[Gal(a1-3)]Gal
# In short: as §1
# [19] = target: Fuc(a1-2)[Gal(a1-3)]Gal(b1-3)GalNAc
# In short: as §1
# [20] = target: Fuc(a1-2)[Gal(a1-3)]Gal(b1-3)GalNAc(b1-3)Gal(a1-4)Gal(b1-4)Glc
# In short: as §1
# [21] = target: Fuc(a1-2)[Gal(a1-3)]Gal(b1-3)GlcNAc
# In short: as §1
# [22] = target: Fuc(a1-2)[Gal(a1-3)]Gal(b1-3)GlcNAc(b1-2)Man(a1-3)[Fuc(a1-2)[Gal(a1-3)]Gal(b1-3)GlcNAc(b1-2)Man(a1-6)]Man(b1-4)GlcNAc(b1-4)GlcNAc
# In short: as §1
# [23] = target: Fuc(a1-2)[Gal(a1-3)]Gal(b1-3)GlcNAc(b1-2)Man(a1-3)[Fuc(a1-2)[Gal(a1-3)]Gal(b1-3)GlcNAc(b1-2)Man(a1-6)]Man(b1-4)GlcNAc(b1-4)[Fuc(a1-6)]GlcNAc
# In short: as §1
# [24] = target: Fuc(a1-2)[Gal(a1-3)]Gal(b1-3)GlcNAc(b1-3)GalNAc
# In short: as §1
# [25] = target: Fuc(a1-2)[Gal(a1-3)]Gal(b1-3)GlcNAc(b1-6)GalNAc
# In short: as §1
# [26] = target: Fuc(a1-2)[Gal(a1-3)]Gal(b1-4)Glc
# In short: as §1
# [27] = target: Fuc(a1-2)[Gal(a1-3)]Gal(b1-4)GlcNAc
# In short: as §1
# [28] = target: Fuc(a1-2)[Gal(a1-3)]Gal(b1-4)GlcNAc(b1-2)Man
# In short: as §1
# [29] = target: Fuc(a1-2)[Gal(a1-3)]Gal(b1-4)GlcNAc(b1-2)Man(a1-3)[Fuc(a1-2)[Gal(a1-3)]Gal(b1-4)GlcNAc(b1-2)Man(a1-6)]Man(b1-4)GlcNAc(b1-4)GlcNAc
# In short: as §1
# [30] = target: Fuc(a1-2)[Gal(a1-3)]Gal(b1-4)GlcNAc(b1-2)Man(a1-3)[Fuc(a1-2)[Gal(a1-3)]Gal(b1-4)GlcNAc(b1-2)Man(a1-6)]Man(b1-4)GlcNAc(b1-4)[Fuc(a1-6)]GlcNAc
# In short: as §1
# [31] = target: Fuc(a1-2)[Gal(a1-3)]Gal(b1-4)GlcNAc(b1-3)GalNAc
# In short: as §1
# [32] = target: Fuc(a1-2)[Gal(a1-3)]Gal(b1-4)GlcNAc(b1-3)[Fuc(a1-2)[Gal(a1-3)]Gal(b1-4)GlcNAc(b1-6)]GalNAc
# In short: as §1
# [33] = target: Fuc(a1-2)[Gal(a1-3)]Gal(b1-4)GlcNAc(b1-6)GalNAc
# In short: as §1
# [34] = target: Fuc(a1-2)[Gal(a1-3)]Gal(b1-4)[Fuc(a1-3)]Glc
# In short: as §1
# [35] = target: Fuc(a1-2)[Gal(a1-3)]Gal(b1-4)[Fuc(a1-3)]GlcNAc
# In short: as §1
# [36] = target: Fuc(a1-2)[Gal(a1-3)]Gal(b1-4)[Fuc(a1-3)]GlcNAc(b1-3)GalNAc
# In short: as §1
# [37] = target: Fuc(a1-2)[Gal(a1-4)]Gal(b1-4)GlcNAc
# In short: as §1
# [38] = target: Fuc(a1-2)[GalNAc(a1-3)]Gal
# In short: as §1
# [39] = target: Fuc(a1-2)[GalNAc(a1-3)]Gal(b1-3)GalNAc(a1-3)[Fuc(a1-2)]Gal(b1-4)GlcNAc
# In short: as §1
# [40] = target: Fuc(a1-2)[GalNAc(a1-3)]Gal(b1-3)GalNAc(b1-3)Gal(a1-4)Gal(b1-4)Glc
# In short: as §1
# [41] = target: Fuc(a1-2)[GalNAc(a1-3)]Gal(b1-3)GlcNAc
# In short: as §1
# [42] = target: Fuc(a1-2)[GalNAc(a1-3)]Gal(b1-3)GlcNAc(b1-2)Man(a1-3)[Fuc(a1-2)[GalNAc(a1-3)]Gal(b1-3)GlcNAc(b1-2)Man(a1-6)]Man(b1-4)GlcNAc(b1-4)GlcNAc
# In short: as §1
# [43] = target: Fuc(a1-2)[GalNAc(a1-3)]Gal(b1-3)GlcNAc(b1-2)Man(a1-3)[Fuc(a1-2)[GalNAc(a1-3)]Gal(b1-3)GlcNAc(b1-2)Man(a1-6)]Man(b1-4)GlcNAc(b1-4)[Fuc(a1-6)]GlcNAc
# In short: as §1
binder,measurement,setting,value
B1,glycan array binding signal (z-score),[1],1.21
same,glycan array binding signal (z-score),[2],1.17
same,glycan array binding signal (z-score),[3],-0.526
same,glycan array binding signal (z-score),[4],0.231
same,glycan array binding signal (z-score),[5],-0.16
same,glycan array binding signal (z-score),[6],-0.955
same,glycan array binding signal (z-score),[7],0.38
same,glycan array binding signal (z-score),[8],0.707
same,glycan array binding signal (z-score),[9],1.97
same,glycan array binding signal (z-score),[10],0.445
same,glycan array binding signal (z-score),[11],-0.496
same,glycan array binding signal (z-score),[12],-0.389
same,glycan array binding signal (z-score),[13],0.4
same,glycan array binding signal (z-score),[14],0.102
same,glycan array binding signal (z-score),[15],-0.16
same,glycan array binding signal (z-score),[16],-0.832
same,glycan array binding signal (z-score),[17],-0.478
same,glycan array binding signal (z-score),Fuc(a1-2)Gal6S(b1-4)Glc,0.156
same,glycan array binding signal (z-score),[18],-0.415
same,glycan array binding signal (z-score),Fuc(a1-2)[Gal(a1-3)]Gal,0.253
same,glycan array binding signal (z-score),[19],1.27
same,glycan array binding signal (z-score),[20],-0.214
same,glycan array binding signal (z-score),[21],0.725
same,glycan array binding signal (z-score),[22],-0.581
same,glycan array binding signal (z-score),[23],0.057
same,glycan array binding signal (z-score),[24],0.213
same,glycan array binding signal (z-score),[25],-1.14
same,glycan array binding signal (z-score),[26],-0.326
same,glycan array binding signal (z-score),[27],0.797
same,glycan array binding signal (z-score),[28],-0.062
same,glycan array binding signal (z-score),[29],-0.935
same,glycan array binding signal (z-score),[30],0.656
same,glycan array binding signal (z-score),[31],-1.51
same,glycan array binding signal (z-score),[32],1.06
same,glycan array binding signal (z-score),[33],-1.15
same,glycan array binding signal (z-score),[34],-0.197
same,glycan array binding signal (z-score),[35],1.03
same,glycan array binding signal (z-score),[36],0.057
same,glycan array binding signal (z-score),[37],2.84
same,glycan array binding signal (z-score),[38],0.956
same,glycan array binding signal (z-score),[39],-1.31
same,glycan array binding signal (z-score),[40],0.188
same,glycan array binding signal (z-score),[41],1.15
same,glycan array binding signal (z-score),[42],-1.02
same,glycan array binding signal (z-score),[43],-0.281

# Shown as tab-separated lines: entries from further up
binder	measurement	setting	value
B1	glycan array binding signal (z-score)	[31]	-1.51
same	glycan array binding signal (z-score)	[32]	1.06

# Source: the supplement of paper PMC8728848
